From PubChem BioAssay AID1487 (National Center for Advancing Translational Sciences (NCATS), 2009)
The other results are listed elsewhere or left out. These are further read-outs of the screen, such as a control signal, another cell line or another target. No call is given for them. The list favours compounds with an active or inconclusive main result. The note in brackets gives the kind of curve behind each potency; many fits are weak.

Experiment: qHTS Assay for Modulators of Lamin A Splicing
Settings: HeLa LMNA splicing GFP/RFP minigene ratio, 48 h
Summary of the method: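 Read-out is the ratio of GFP to DsRed2 object intensity, acquired by 488 nm laser-scanning cytometry on HeLa lamin A-EGFP minigene reporter cells. Compound incubation 48 hrs at 37 °C in Opti-MEM with 2% FBS; DMSO 0.5% final.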

[1] = measured here: GFP splicing reporter channel
[2] = measured here: RFP viability control channel

For `CC(C)(C)C(=O)Nc1ccc(-c2csnn2)cc1`, the AC50 [1] was 15.8 µM [falling, single point] and the AC50 [2] was 35.5 µM [falling, single point].

In the case of `Cc1c(Cl)cccc1-n1ncc(C(=O)NCc2cccs2)c1C1CCN(C(=O)OC(C)(C)C)CC1`, the AC50 [2] was 35.5 µM [rising, single point].

For `O=C(C[n+]1cn(C(F)F)c2ccccc21)c1ccc(Br)cc1`, the AC50 [1] was 3.98 µM [rising, partial curve, poor fit] and the AC50 [2] was 35.5 µM [falling, single point].

In the case of `COc1ccc(NC(=O)C2CCCN(S(=O)(=O)c3cccnc3)C2)cc1` (configuration not stated), the AC50 [1] was 20 µM [rising, single point] and the AC50 [2] was 35.5 µM [rising, single point].

In the case of `COc1ccc(/C=C/CN2CCN(Cc3cccc(OC)c3)C(CCO)C2)cc1` (configuration not stated), the AC50 [1] was 22.4 µM [falling, single point] and the AC50 [2] was 14.1 µM [falling, partial curve].

In the case of `CNC(=O)Cn1c(=O)c2cccn2c2ccc(F)cc21`, the AC50 [1] was 5.62 µM [rising, partial curve, poor fit] and the AC50 [2] was 5.62 µM [rising, partial curve, poor fit].

In the case of `O=C(Nc1ccc(N2CCOCC2)c(Cl)c1)c1ncn[nH]1`, the AC50 [1] was 5.62 µM [falling, full curve] and the AC50 [2] was 4.47 µM [falling, full curve, poor fit].

With `Cc1cc(C)c[n+](C(C)C(=O)c2ccc(-c3ccccc3)cc2)c1` (configuration not stated) the AC50 [2] was 5.62 µM [rising, full curve].

In the case of `CN(C1CCCCC1)S(=O)(=O)c1ccc(S(=O)(=O)N2CCCC2)cc1`, the AC50 [2] was 10 µM [rising, single point].

For `COc1ccc(C(=O)c2ccc(O)cc2)c(O)c1O`, the AC50 [1] was 17.8 µM [rising, single point] and the AC50 [2] was 12.6 µM [rising, single point].

With `CC(C)[C@H](NC(=O)c1ccco1)C(=O)NC12CC3CC(CC(C3)C1)C2` the AC50 [1] was 35.5 µM [falling, partial curve, poor fit] and the AC50 [2] was 35.5 µM [falling, partial curve, poor fit].

For `O=C(CSc1c[nH]c2ccccc12)N1CCCc2ccccc21`, the AC50 [2] was 7.08 µM [rising, partial curve, poor fit].

In the case of `COc1ccc(CNc2oc(Cc3cccc4ccccc34)nc2C#N)cc1`, the AC50 [2] was 35.5 µM [rising, single point].

In the case of `O=C(N/N=C/c1ccc[nH]1)c1cc(-c2ccc(Cl)cc2)nc2ccccc12`, the AC50 [2] was 12.6 µM [rising, partial curve, poor fit].
